# Measurements from article PMC7275041.
# By UniProt entry, the sequences of proteins in these tests, tags left out. Where a name states a change or a piece, a line headed by the entry shows the natural chain unless it says otherwise.
# UniProt P43351: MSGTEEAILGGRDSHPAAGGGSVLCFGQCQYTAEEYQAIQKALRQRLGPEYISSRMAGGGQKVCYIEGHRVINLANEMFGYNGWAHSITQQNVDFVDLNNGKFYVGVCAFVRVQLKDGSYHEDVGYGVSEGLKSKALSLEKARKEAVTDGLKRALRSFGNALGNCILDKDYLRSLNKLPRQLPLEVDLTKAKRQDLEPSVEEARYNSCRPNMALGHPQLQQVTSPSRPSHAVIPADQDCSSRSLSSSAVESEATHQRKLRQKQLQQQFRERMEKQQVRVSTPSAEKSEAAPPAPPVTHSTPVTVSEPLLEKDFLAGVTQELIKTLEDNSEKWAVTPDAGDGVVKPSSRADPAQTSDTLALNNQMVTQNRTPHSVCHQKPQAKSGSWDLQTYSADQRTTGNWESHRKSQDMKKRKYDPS
# Assays:
# RAD52 (hRAD52) (human) = RAD52 (hRAD52) (human) (UniProt P43351); experiment: EMSA; details: weaker than the m5C hybrid N2, 1 mM Mg2+, source data at top RAD52 level (360, unit not shown): 79.8 and 86.1; EMSA: 25 mM Tris-HCl pH 7.5, 1 mM MgCl2, 1 mM DTT, 50 ug/mL BSA, 50 or 300 mM NaCl and/or 0.5% NP-40, 15 min 37 C, 6% PAGE-TBE at 4 C; recombinant protein; protein details: C-terminal 6xHis (pET28b); label: 5' maleimide-IR800 on oligo 1 (DNA); DNA:RNA hybrid
# RAD52 in cell lysate = RAD52 in cell lysate (UniProt P43351); experiment: pull-down; details: pull-down: Pierce magnetic RNA-protein pull-down kit, protein in an extract, label: 3'-biotin on RNA, DNA:RNA hybrid, letters put together from the description
# His-TRDMT1 (human) = target: T1, His-TRDMT1 (human) (UniProt O14717); experiment: pull-down; details: pull-down: Pierce magnetic RNA-protein pull-down kit; recombinant protein; protein details: His; label: 3'-biotin on RNA; DNA:RNA hybrid; letters put together from the description
# T1 sequence (looked up, limits assumed): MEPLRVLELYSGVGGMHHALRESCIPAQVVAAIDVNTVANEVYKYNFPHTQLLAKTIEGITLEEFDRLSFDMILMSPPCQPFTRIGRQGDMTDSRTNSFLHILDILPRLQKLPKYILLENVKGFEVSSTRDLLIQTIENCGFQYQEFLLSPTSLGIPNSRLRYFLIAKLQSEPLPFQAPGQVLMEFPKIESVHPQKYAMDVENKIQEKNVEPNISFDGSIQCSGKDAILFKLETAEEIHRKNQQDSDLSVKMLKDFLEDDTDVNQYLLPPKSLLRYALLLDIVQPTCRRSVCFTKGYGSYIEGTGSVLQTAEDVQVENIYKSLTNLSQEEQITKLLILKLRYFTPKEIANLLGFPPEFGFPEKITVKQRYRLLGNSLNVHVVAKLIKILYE
sequence,measurement,setting,value
ATCATCACCATAACGTCGATGTATCAACTTCGATTAGTCACACCAATTAA / UUAAUUGGUGUGACUAAUCGAAGUUGAUACAUCGACGUUAUGGUGAUGAU [50-bp DNA:RNA hybrid (oligo 1/oligo 2)],binding result,RAD52 (hRAD52) (human),binds more weakly
UGACUAAUCGAAGUUGAUACAUCGACGUUA / TAACGTCGATGTATCAACTTCGATTAGTCA [30-bp DNA:RNA hybrid],binding result,"RAD52 in cell lysate; less efficient capture than m5C hybrid N4, wash with additional 300 mM NaCl and 0.5% NP-40",binds more weakly
same,binding result,His-TRDMT1 (human),binds
UGACUAAUCGAAGUUGAUACAUCGACGUUA / TAACGTCGATGTATCAACTTCGATTAGTCA [30-bp m5C DNA:RNA hybrid],binding result,"RAD52 in cell lysate; more efficient capture than unmodified N3, wash with additional 300 mM NaCl and 0.5% NP-40, m5C at all five C of the RNA strand (positions 4, 9, 20, 23, 26)",binds

# For at least one entry, the source does not settle the construct or the ends of the probe. For some of these results: A weaker result is weaker than the reference pair of the same experiment. For some of these results: Results from cells or extracts need not show a direct contact. For some of these results: At least one verdict rests on a figure or table, not on a statement of the authors. For some of these results: Protein sequences can lack the tags named with them.
